Legend:
Assay in all cases: cells
MCF7par = settings: Homo sapiens
MCF7HER2− = settings: Homo sapiens
T47D = settings: Homo sapiens
MDA-MB-436 = settings: Homo sapiens
1321n1 - astrocytoma = settings: Homo sapiens
SHSY5Y - neuroblastoma = settings: Homo sapiens, SH-SY5Y
U87 - glioblastoma = test system: U87 - glioblastoma
H28 - mesothelioma = test system: H28 - mesothelioma
LnCAP - prostate cancer = settings: Homo sapiens
[1] = test system: H1299 - non-small cell lung cancer; settings: Homo sapiens, NCI-H1299
MG-63 - osteosarcoma = settings: Homo sapiens
[2] = test system: HCT116 - colorectal cancer; settings: Homo sapiens, HCT-116
HepG2 - hepatocarcinoma = settings: Homo sapiens
MOLT-4 - leukaemia = settings: Homo sapiens

Q: What does the source list for CC/C(=C(\c1ccccc1)c1ccc(OCCN(C)C)cc1)c1ccccc1 [TAX, tamoxifen]?
A: IC50 (MCF7par): 15.2 µM; IC50 (MCF7HER2−): 14.1 µM; IC50 (T47D): 17.3 µM; IC50 (MDA-MB-436): 12.6 µM; IC50 (1321n1 - astrocytoma): 18 µM; IC50 (SHSY5Y - neuroblastoma): 11.2 µM; IC50 (U87 - glioblastoma): 32.4 µM; IC50 (H28 - mesothelioma): 39.7 µM; IC50 (LnCAP - prostate cancer): 36.7 µM; IC50 [1]: 38.5 µM; IC50 (MG-63 - osteosarcoma): 19.9 µM; IC50 [2]: 28.9 µM; IC50 (HepG2 - hepatocarcinoma): 17.6 µM; IC50 (MOLT-4 - leukaemia): 12.9 µM

Reference: patent US9896466B2 (Smart Brain S.R.O., priority 2013, dated 2018)
